Test results as given in PubChem BioAssay AID493014 (National Center for Advancing Translational Sciences (NCATS), 2011).
This is one part of the list. Further columns of the screen follow, without active or inactive calls. Compounds called inactive in the main read-out are mostly missing here. Potencies come from curve fits of mixed quality, noted in brackets.

Assay: qHTS Assay to Find Inhibitors of Chronic Active B-Cell Receptor Signaling
Conditions: ABC-DLBCL IkBa-CBG/CBR reporter, luminescence ratio (green luciferase fused to IkBa over red control in TMD8 lymphoma cells), 4 h
How it was run: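 Cell line TMD8 (human ABC DLBCL), stably expressing tet-inducible CBG68-IkBa fusion and CBR; IMDM/0.5% FBS; cpd up to 46 uM; dox induction, 4 h, 37C/5% CO2; dual luminescence; green/red ratio; MG132 control.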

[1] = measured here: CBR red luminescence, cell number

Structure (SMILES)	AC50 [1]	AC50 (measured here: IkBa-CBG green luminescence)
CCCn1c(=O)c(C(=O)Nc2cc(C)ccn2)c(O)c2ccccc21	14.1 µM [rising, partial curve]	
C[n+]1nc(Nc2cccc(F)c2)sc1-c1ccc(C(=O)O)cc1	10 µM [falling, partial curve]	
COc1ccc([C@H]2[C@@H]3C=CCC[C@@]3(C)C(=O)N2Cc2ccccc2)cc1Cl	12.6 µM [falling, partial curve, poor fit]	
O=C(NCC1CCCCC1)C1(CC2CC(c3cccc(Br)c3)=NO2)CCNCC1 (configuration not stated)	15.8 µM [falling, single point]	
CCCc1cc(=O)n2nc(N3CCC(C(=O)Nc4cccc(C(C)=O)c4)CC3)sc2n1	35.5 µM [rising, single point]	
C/C(O)=C(/C#N)c1nc2ccccc2[nH]1	8.91 µM [falling, partial curve, poor fit]	
CC(C)(C)NC(=O)CCC1COc2ccccc2O1 (configuration not stated)	25.9 µM [rising, partial curve, poor fit]	
COc1ccc(/C(C)=N/NC(=O)c2ccccc2N)cc1	17.8 µM [falling, partial curve, poor fit]	
COc1ccc(NC(=O)n2ncc3c(C)cccc32)cc1OC	22.4 µM [falling, partial curve, poor fit]	
Cc1ccc2nc(SCC(=O)Nc3ccc4c(c3)OCCO4)nc(=O)n2c1	25.9 µM [rising, partial curve, poor fit]	
C/C(=N\NC(=O)c1ccco1)c1ccc(NC(=O)C(F)(F)F)cc1	15.8 µM [falling, single point]	
COc1cc2c(cc1OC)C(COc1cc(C)cc(C)c1)N(C(=O)C(C)(C)C)CC2 (configuration not stated)	8.91 µM [rising, partial curve, poor fit]	
Fc1cccc(/C=N/N=C/c2cccc(F)c2)c1	11.2 µM [rising, partial curve, poor fit]	
Cc1c(C(=O)Nc2c(F)cccc2F)sc2ncn(Cc3ccccc3F)c(=O)c12	8.91 µM [rising, partial curve, poor fit]	
N#Cc1cccc(-n2nnnc2-c2ccccn2)c1	11.2 µM [rising, partial curve]	
Cc1cc(C(=O)N/N=C/c2cccc3ccccc23)c(C)o1	14.1 µM [falling, partial curve]	
Cc1sc(N(C(=O)CCc2ccccc2)c2ccc(C(=O)O)cc2)nc1-c1ccccc1	1.41 µM [falling, full curve]	
CCOC(=O)Cc1nnc(NCc2ccccc2)c2ccccc12	11.2 µM [falling, partial curve]	
CC(=O)c1sc(NC(=O)c2ccc(C(C)(C)C)cc2)nc1C	1.26 µM [falling, partial curve]	
COc1cc2c(c(OC)c1OC)C(c1ccc3c(c1)OCO3)CC(=O)O2 (configuration not stated)	29.1 µM [rising, single point]	20.6 µM [falling, single point]
COc1ccccc1NS(=O)(=O)c1cc(Cl)ccc1OC	35.5 µM [rising, partial curve, poor fit]	

Taken from above:
Entry for `COc1ccc(/C(C)=N/NC(=O)c2ccccc2N)cc1` under AC50 [1]: 17.8 µM [falling, partial curve, poor fit]
Entry for `Fc1cccc(/C=N/N=C/c2cccc(F)c2)c1` under AC50 [1]: 11.2 µM [rising, partial curve, poor fit]
Entry for `N#Cc1cccc(-n2nnnc2-c2ccccn2)c1` under AC50 [1]: 11.2 µM [rising, partial curve]

Further compounds follow:

Structure (SMILES)	AC50 [1]	AC50 (measured here: IkBa-CBG green luminescence)
O=C(NC1CC1)c1cccc(NC(=O)c2cn3ccccc3n2)c1	8.2 µM [falling, partial curve]	
Cc1ccc(N(CC(=O)NCC2CCCO2)S(=O)(=O)c2ccccc2)c(C)c1 (configuration not stated)	6.31 µM [falling, single point]	
O=C(Cn1c(=O)c2cccn2c2ccccc21)NCc1cccc(F)c1	7.08 µM [rising, partial curve, poor fit]	
CCc1nnc(NS(=O)(=O)c2ccc(NCc3cc(Cl)cc(Cl)c3O)cc2)s1	35.5 µM [rising, single point]	
COc1ccc(OC)c(NC(=O)CSc2nc(=O)n(Cc3ccccn3)c3c2CCC3)c1	6.51 µM [falling, partial curve]	
Cc1ccc(OCC(=O)Nc2ccccc2[N+](=O)[O-])c(Br)c1	5.01 µM [rising, partial curve]	
CN(C)c1ccc(-c2ccccc2)nn1	4.61 µM [rising, single point]	
CC(C)CCN1CN(S(=O)(=O)c2cccs2)c2nc3ccccc3nc21	4.61 µM [rising, single point]	
CCS(=O)(=O)Nc1cc(OC)c(OC)cc1Cc1nccc2cc(OC)c(OC)cc12	7.08 µM [rising, full curve, poor fit]	
CC(CCc1ccccc1)NC(=O)Cc1ccccc1 (configuration not stated)	29.1 µM [rising, single point]	
COc1ccccc1N(CC(=O)N(c1ccccc1)C(C)C)S(=O)(=O)c1cccs1	11.2 µM [falling, partial curve]	
Cc1cc(C)nc(Nc2n[nH]c(-c3cccc4ccccc34)n2)n1	1.58 µM [falling, full curve, poor fit]	
COc1cccc(NC(=O)/C=C/c2ccc([N+](=O)[O-])cc2)c1	0.708 µM [falling, full curve]	
NS(=O)(=O)c1cccc(NC(=O)CCS(=O)(=O)c2ccc(Cl)cc2)c1	20 µM [rising, single point]	
CCOc1ccc(-c2nc(C#N)c(NCC(C)C)o2)cc1	7.94 µM [rising, partial curve, poor fit]	
CCOC(=O)c1sc(NC(=O)CN2CC(C)OC(C)C2)nc1C (configuration not stated)	31.6 µM [falling, single point]	
O=C(Nc1ccncc1)c1ccc([N+](=O)[O-])cc1Cl	11.2 µM [falling, partial curve]	
CC1CN(CCOCCSc2ccccc2)CC(C)O1 (configuration not stated)	6.31 µM [rising, partial curve, poor fit]	
O=C(Nc1ccc(Br)c(C(F)(F)F)c1)c1ccc(C(F)(F)F)cc1	5.62 µM [rising, full curve, poor fit]	
Cc1ccc(OC(C)C(=O)N=Nc2c(O)[nH]c3ccc([N+](=O)[O-])cc23)cc1 (configuration not stated)	3.98 µM [rising, single point]	
